± gives the standard deviation of the averaged measurements. Most values lie at the floor of the assay. Slopes are relative: functional sequences can read slightly below zero.
system: Saccharomyces cerevisiae PS128 hsf1 delta, HSF1(1-493) fusion; assay: growth estimate (transactivation domain function in HSF1 fusion, heat-shock survival) (a.u. (slope of normalised read count over time)); higher = stronger growth at 37°C, i.e. more transactivation activity; settings: library: random library

Substance | growth estimate
TCRLKFGATISVAIEH | < -0.25
ALGARSQAPNSL | < -0.25
VTRLCS | < -0.25
PGPTVGHTLIPRGWPIPRRG | < -0.25
YLRKLNYVVYLKTVSTQASN | < -0.25
RCRRIRADLHAISGRETTNL | < -0.25
GNRRFQHQE | < -0.25
KGNIAQSLIRRHYAK | < -0.25
VYPGKSWVCKSI | < -0.25
NIKTPDLAHCI | < -0.25
TLDLTDESAASKSTFHWHRP | < -0.25
HDPAIARTSRRLNRDYRYVA | < -0.25
SVSGEATFSSDVIAGRKIRM | < -0.25
RRHRRQG | < -0.25
GLKTRR | < -0.25
GRLRRPRTLSLIFGE | < -0.25
MTMAGVCTQRLPGSSRSGLV | < -0.25
IAIGLRLGVTTSKFTSYCGD | < -0.25
CPTRLL | < -0.25
TFPILYERSRWPR | < -0.25
VLICSF | < -0.25
VHSLSQKYGPRGTIQYRNTP | 0.0603
VVAPV | < -0.25
GLRDQELGRRKDSRPYMA | 0.0616
RNCPPMVVREGGR | < -0.25

Substance | growth estimate
SKGRFQE | < -0.25
NSGTAGDLPHTRVPRLLASS | < -0.25
LYNSRWFKMRFRRASVSECG | < -0.25
GRVRDTTWTSAFLSCAPSVT | < -0.25
VFYDSSEAISFKGSDSRLIR | < -0.25
QHGVKFIARSGALCTRLRDC | < -0.25
DSVTILVKTEE | < -0.25
HFCLSVVAYLGRGYRPSYCA | < -0.25
IAGQRRESGLDSLERRFIVP | < -0.25
PTKIRCNVDSQIRL | < -0.25
SYMLAGSLGSEGVGRQWLAS | < -0.25
MLALTSGLRILTA | < -0.25
FSGWVSRRGARTRRHWEVIH | < -0.25
GAFVVEASRLTFVNLVGWAL | < -0.25
GDTSVRGIMTVNARRNLPPK | < -0.25
SNGTN | < -0.25
ADGHSAPLGRPGDRFFGVMV | < -0.25
LPGHHGVWLRLGEYLCALPP | < -0.25
GLH | < -0.25
RLSYEGGLVPTDPHAYAAPK | < -0.25
EESLPI | < -0.25
TDVRKCRRSTLIAVALAQGA | < -0.25
LTCWLAVRKFLTGRGIFYRA | < -0.25
VIVAYQSSEVRTGSRSFLGH | 0.285
SVVLTRQLRKYAVDDQTVIT | < -0.25

Substance | growth estimate
VNALRWLGRKR | < -0.25
SDREWPLDRPKVVVTFK | < -0.25
TSGTLKRLTRPAS | < -0.25
QIGPEWGEGSVRCLEPR | < -0.25
TELSCTRLLGLSRAANTRRL | < -0.25
VKSSRQGSCFFQVVHYSRQG | < -0.25
RDAKKGSNYLGTVGTGGTFC | < -0.25
AGFGSVLMVMSGGMIHRDTR | < -0.25
CQYLNSVA | < -0.25
TIGVGSAGYRNVEDYH | < -0.25
LVAFQMVNVLKSSS | < -0.25
LEPCSAASAPRLTCGEGTRC | < -0.25
VKLIRQIMAQPCEPRTGIRS | < -0.25
RCQVMA | < -0.25
PRSIPYNAYWHRAI | < -0.25
VGFWTSSLTVVG | < -0.25
TFVGKELT | -0.231
IVA | -0.247 ± 0.0037
VGGGQTSSERR | < -0.25
RLRIRTVVKLCRMTPFVTVH | < -0.25
GKSCDAGALDWARLKRSVNT | < -0.25
ALSTGVYLLTTGTMVSRIIV | < -0.25
AYWGIAFPPASTFF | < -0.25
SDVECQAAPVRTPRGVLFRW | < -0.25
ACQASRV | < -0.25

Substance | growth estimate
TTRVRICGLSTGSVRPAAVL | < -0.25
FIGVTPVDFLLLKPGHICLP | < -0.25
RGFPDKMTAREARHECPRCG | < -0.25
SACNG | < -0.25
SGYPPGRTRLVRSKPYWKLA | < -0.25
RFGAFKILTAAPGDALKMMF | < -0.25
VLRGRARKAAGYMLTAYATL | < -0.25
YTNTPMHGQIAFGRRSPGFW | < -0.25
TIYVSPPS | < -0.25
VRPLTLQSPTLVRIFDTDRA | < -0.25
PVDGRQGKGSEVHVIDGGSP | < -0.25
LNLAAVALYGQKYNLNLGTS | < -0.25
LSRTFIGRSVYSSPMRRGL | < -0.25
SYSLVVLQSCHASRIRGAPS | < -0.25
ARSALVGCQRHGMVAADSAY | < -0.25
CLSDAGHSAW | < -0.25
SRRRLFVTFDPYDPIIACFF | < -0.25
LVYP | < -0.25
TPGPVWGRPSLYSTKLGESM | < -0.25
RYYPEV | < -0.25
WVICQHRRGRHRVPIITVRV | < -0.25
LPTGDSDSRNADDRH | < -0.25
